According to article PMC4130184:
For at least one entry, the source does not settle the construct or the ends of the probe. At least one verdict rests on a figure or table, not on a statement of the authors. Tags and fusion partners may be left off the protein sequences shown.

Assays:
CSP41b = target: T1, CSP41b (UniProt Q9SA52); experiment: EMSA; details: 3 ug protein, DNA/protein 1:100, 50x unlabeled probe competition; EMSA: 10 mM Tris-HCl, 25 mM KCl, 1 mM DTT (1x from 10x stock; pH not stated), 1 ug poly(dI-dC) per 25 uL, 2.5% glycerol, 0.05% Triton X-100, 5 mM MgCl2, 10 mM EDTA; recombinant protein; residues 1-378; protein details: His (pET_His1a); label: biotin-14-dCTP at 3' end; probe letters rebuilt from the primers and the genome
T1 sequence (looked up): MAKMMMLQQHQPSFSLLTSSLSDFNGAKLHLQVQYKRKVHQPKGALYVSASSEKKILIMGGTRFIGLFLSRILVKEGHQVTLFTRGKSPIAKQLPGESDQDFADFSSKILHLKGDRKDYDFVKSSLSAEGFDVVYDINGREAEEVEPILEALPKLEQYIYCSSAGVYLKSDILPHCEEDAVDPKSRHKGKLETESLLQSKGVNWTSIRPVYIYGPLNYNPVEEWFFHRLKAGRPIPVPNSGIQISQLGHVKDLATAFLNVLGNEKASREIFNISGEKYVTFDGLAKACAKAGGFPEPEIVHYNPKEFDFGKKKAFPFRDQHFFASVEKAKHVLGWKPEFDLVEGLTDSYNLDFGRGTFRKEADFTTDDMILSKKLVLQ

PRIN2 = target: T2, PRIN2 (UniProt Q9XIK0); experiment: EMSA; details: 3 ug protein, DNA/protein 1:100, 50x unlabeled probe competition; EMSA: 10 mM Tris-HCl, 25 mM KCl, 1 mM DTT (1x from 10x stock; pH not stated), 1 ug poly(dI-dC) per 25 uL, 2.5% glycerol, 0.05% Triton X-100, 5 mM MgCl2, 10 mM EDTA; recombinant protein; protein details: His (pET_His1a); label: biotin-14-dCTP at 3' end; probe letters rebuilt from the primers and the genome
T2 sequence (looked up, limits assumed): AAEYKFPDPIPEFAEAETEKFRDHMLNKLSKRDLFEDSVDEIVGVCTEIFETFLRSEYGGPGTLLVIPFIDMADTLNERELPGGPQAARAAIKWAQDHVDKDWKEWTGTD

ACCCACTACGGATCGTATTCAATCGTATTCATATGATTTGGAAAAAATATTCCTAGAGCAATTCTATTTCTATGTATGTGGATTCGCTTCTAATTTATTTCATCGATTACAAAAAATTTTTTATGAATCTAAACTAAAAGGATCTTATCCATTTTACATTGGTTGACATGGCTATATAAGTCATGTTATACTGTTTC (double strand) [psbA promoter probe (197/198 bp)]
binding result (CSP41b): binds
binding result (PRIN2): binds
